Reference: paper PMC6769459, “Inhibition of Tyrosine-Phosphorylated STAT3 in Human Breast and Lung Cancer Cells by Manuka Honey is Mediated by Selective Antagonism of the IL-6 Receptor” (International Journal of Molecular Sciences, 2019)
No constants are given. Whether binding was seen depends on the method and setting. Some entries that bind do so weakly or less than the wild type.

Biological target: T1, IL-11 receptor α chain (IL-11Rα), recombinant (UniProt Q14626)
T1 sequence: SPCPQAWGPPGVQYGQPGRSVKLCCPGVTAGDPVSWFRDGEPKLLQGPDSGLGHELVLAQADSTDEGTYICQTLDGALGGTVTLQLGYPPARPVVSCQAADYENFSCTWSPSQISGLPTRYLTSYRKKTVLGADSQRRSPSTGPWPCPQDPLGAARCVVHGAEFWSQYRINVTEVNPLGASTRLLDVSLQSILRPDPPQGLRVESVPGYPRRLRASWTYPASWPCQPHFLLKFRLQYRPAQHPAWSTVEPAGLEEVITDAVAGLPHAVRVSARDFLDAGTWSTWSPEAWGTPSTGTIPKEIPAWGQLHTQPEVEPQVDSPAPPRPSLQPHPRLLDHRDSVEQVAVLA
Assay: ELISA; receptor coated on 96-well plates overnight at 4 °C (IL-6Rα 2 μg/mL, IL-8R 0.5 μg/mL, IL-11Rα 1 μg/mL), blocked with 1% BSA in PBS; pre-incubated 1 h at room temperature with Manuka honey (0.03–3%), sugar control or flavonoids (0.5–50 μM), washed; cytokine 50 ng/mL added for 1 h at 37 °C; detected with biotin-conjugated mAb to the cytokine and HRP-streptavidin; both purified

binding: binds
B1: IL-11, recombinant (ligand, UniProt P20809 22-199)
chain: PGPPPGPPRVSPDPRAELDSTVLLTRSLLADTRQLAAQLRDKFPADGDHNLDSLPTLAMSAGALGALQLPGVLTRLRADLLSYLRHVQWLRRAGGSSLKTLEPELGTLQARLDRLLRRLQLLMSRLALPQPPPDPPAPPLAPPSSAWGGIRAAHAILGGLHLTLDWAVRGLLLLKTRL
